Measurements reported in patent US20020106690A1 (published 2002).
Residue numbers refer to the chain shown, from its start. Names may count otherwise. These are yes or no findings as the source states them, for the method shown. For some assays here: In cells and extracts the contact can be indirect. Some results given as binding are weak or reduced against the parent protein; the word gives no strength. For some assays here: Tags and fused reporters may be left off the sequences shown.

Sequences of proteins named here, by UniProt entry; tags and fusion partners are left off.
UniProt P18852: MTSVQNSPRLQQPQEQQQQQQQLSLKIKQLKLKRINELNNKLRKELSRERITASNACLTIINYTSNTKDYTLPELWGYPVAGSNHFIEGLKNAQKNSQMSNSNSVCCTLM

Columns and labels:
[1] = molecular target: T1, Ste4p (Saccharomyces cerevisiae (yeast)) (UniProt P18851); assay: GST pull-down of in vitro-translated 35S-Ste4p (legend of FIG. 2)
T1 sequence (35S-labelled methionine in the in vitro-translated form, looked up): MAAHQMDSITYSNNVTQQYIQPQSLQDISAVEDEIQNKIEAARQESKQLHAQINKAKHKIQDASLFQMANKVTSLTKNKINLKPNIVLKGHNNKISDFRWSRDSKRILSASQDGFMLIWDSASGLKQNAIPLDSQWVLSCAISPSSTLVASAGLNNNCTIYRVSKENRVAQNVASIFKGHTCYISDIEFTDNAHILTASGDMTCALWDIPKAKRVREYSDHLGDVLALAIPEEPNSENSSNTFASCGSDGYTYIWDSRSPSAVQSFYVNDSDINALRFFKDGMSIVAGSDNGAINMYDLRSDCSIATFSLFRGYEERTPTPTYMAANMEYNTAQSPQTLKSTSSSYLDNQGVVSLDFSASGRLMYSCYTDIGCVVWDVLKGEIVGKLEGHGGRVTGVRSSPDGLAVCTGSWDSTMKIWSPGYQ

[2] = molecular target: T1, Ste4p (Saccharomyces cerevisiae (yeast)); assay: GST pull-down of in vitro-translated 35S-Ste4p, autoradiography
[3] = molecular target: T2, GST-Ste5p (Saccharomyces cerevisiae (yeast)) (UniProt P32917); assay: GST pull-down of in vitro-translated 35S-Ste4p mutant, with HA-Ste18p present
T2 sequence (looked up): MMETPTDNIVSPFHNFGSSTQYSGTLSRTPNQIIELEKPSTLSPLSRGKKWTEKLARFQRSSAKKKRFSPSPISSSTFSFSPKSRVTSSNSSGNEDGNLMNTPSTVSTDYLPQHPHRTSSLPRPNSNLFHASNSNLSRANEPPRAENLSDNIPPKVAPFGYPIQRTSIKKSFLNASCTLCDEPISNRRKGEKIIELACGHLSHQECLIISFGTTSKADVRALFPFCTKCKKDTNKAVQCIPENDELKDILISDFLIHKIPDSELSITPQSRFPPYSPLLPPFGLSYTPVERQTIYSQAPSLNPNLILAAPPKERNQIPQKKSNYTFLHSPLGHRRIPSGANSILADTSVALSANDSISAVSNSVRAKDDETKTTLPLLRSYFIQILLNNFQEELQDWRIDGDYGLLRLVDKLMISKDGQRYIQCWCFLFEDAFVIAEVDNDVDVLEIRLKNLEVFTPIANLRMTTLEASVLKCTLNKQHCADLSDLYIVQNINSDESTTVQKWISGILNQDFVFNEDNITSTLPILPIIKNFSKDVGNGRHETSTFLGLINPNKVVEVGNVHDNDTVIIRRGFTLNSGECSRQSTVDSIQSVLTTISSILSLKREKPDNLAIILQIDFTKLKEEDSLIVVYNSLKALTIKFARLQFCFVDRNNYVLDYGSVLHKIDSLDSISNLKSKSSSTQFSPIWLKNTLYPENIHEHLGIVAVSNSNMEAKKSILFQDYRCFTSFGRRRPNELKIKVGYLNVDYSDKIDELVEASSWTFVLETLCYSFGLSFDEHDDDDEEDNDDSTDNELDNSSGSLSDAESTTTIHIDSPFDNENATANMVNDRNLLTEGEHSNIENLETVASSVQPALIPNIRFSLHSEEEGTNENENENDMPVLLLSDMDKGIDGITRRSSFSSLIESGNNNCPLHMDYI

[4] = molecular target: T3, GST-Ste20p FL (Saccharomyces cerevisiae (yeast)) (UniProt Q03497); assay: as above
T3 sequence: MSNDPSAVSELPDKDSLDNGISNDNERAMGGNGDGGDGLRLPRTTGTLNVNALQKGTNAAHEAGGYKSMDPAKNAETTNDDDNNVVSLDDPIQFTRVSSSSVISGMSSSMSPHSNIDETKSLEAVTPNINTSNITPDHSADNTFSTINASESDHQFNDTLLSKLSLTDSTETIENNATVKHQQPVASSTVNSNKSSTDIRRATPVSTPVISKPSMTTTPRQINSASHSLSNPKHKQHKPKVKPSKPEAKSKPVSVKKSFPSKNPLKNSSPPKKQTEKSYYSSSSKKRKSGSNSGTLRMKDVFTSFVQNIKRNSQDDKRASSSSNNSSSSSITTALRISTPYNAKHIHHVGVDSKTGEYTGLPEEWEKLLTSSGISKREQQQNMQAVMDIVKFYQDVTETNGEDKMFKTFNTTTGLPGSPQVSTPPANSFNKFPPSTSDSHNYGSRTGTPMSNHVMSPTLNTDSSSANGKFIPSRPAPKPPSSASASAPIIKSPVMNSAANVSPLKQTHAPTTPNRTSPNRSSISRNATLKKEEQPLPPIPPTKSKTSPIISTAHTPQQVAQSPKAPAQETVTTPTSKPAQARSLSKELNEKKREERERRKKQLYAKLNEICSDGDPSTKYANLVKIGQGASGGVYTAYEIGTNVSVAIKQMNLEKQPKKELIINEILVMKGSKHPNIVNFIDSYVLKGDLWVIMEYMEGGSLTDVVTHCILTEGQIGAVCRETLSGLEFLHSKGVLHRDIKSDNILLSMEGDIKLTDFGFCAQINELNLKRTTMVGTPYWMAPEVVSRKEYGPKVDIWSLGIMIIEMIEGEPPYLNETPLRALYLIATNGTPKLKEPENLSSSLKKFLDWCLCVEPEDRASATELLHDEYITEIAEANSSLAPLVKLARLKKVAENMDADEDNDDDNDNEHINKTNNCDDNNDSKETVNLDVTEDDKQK

[5] = molecular target: T2, GST-Ste5p (Saccharomyces cerevisiae (yeast)); assay: GST pull-down of in vitro-translated wild-type 35S-Ste4p, with HA-Ste18p present
[6] = molecular target: Ste18p (two-hybrid system) (Saccharomyces cerevisiae (yeast)) (UniProt P18852); assay: yeast two-hybrid system

With “GST fusion with mouse mPAK3 (from UniProt Q61036 1-544)” the binding [1] was “binds” and the binding [2] was “binds”.

B1: Ste4p K55E mutant (other, Saccharomyces cerevisiae (yeast), UniProt P18851 1-423, looked up)
chain: T1 sequence (35S-labelled methionine in the in vitro-translated form, looked up) with K55E
modifications: 35S-labelled methionine
notes: In vitro-translated, 35S-labelled; also called STE4^K55E; 35S-Ste4p K55E
In the case of B1, the binding [3] is reported as “binds”.

B2: Ste4p D62N mutant (other, Saccharomyces cerevisiae (yeast), UniProt P18851 1-423, looked up)
chain: T1 sequence (35S-labelled methionine in the in vitro-translated form, looked up) with D62N
modifications: 35S-labelled methionine
notes: In vitro-translated, 35S-labelled; also called STE4^D62N; 35S-Ste4p D62N
With B2 the binding [3] was “binds”.

B3: Ste4p N157H/S175P mutant (protein, Saccharomyces cerevisiae (yeast), UniProt P18851 1-423, looked up)
chain: T1 sequence (35S-labelled methionine in the in vitro-translated form, looked up) with N157H, S175P
modifications: 35S-labelled methionine
For B3, the binding [3] was “binds” and the binding [4] was “binds”.

B4: Ste4p ΔF177 mutant (protein, Saccharomyces cerevisiae (yeast), UniProt P18851 1-423, looked up)
chain: MAAHQMDSITYSNNVTQQYIQPQSLQDISAVEDEIQNKIEAARQESKQLHAQINKAKHKIQDASLFQMANKVTSLTKNKINLKPNIVLKGHNNKISDFRWSRDSKRILSASQDGFMLIWDSASGLKQNAIPLDSQWVLSCAISPSSTLVASAGLNNNCTIYRVSKENRVAQNVASIKGHTCYISDIEFTDNAHILTASGDMTCALWDIPKAKRVREYSDHLGDVLALAIPEEPNSENSSNTFASCGSDGYTYIWDSRSPSAVQSFYVNDSDINALRFFKDGMSIVAGSDNGAINMYDLRSDCSIATFSLFRGYEERTPTPTYMAANMEYNTAQSPQTLKSTSSSYLDNQGVVSLDFSASGRLMYSCYTDIGCVVWDVLKGEIVGKLEGHGGRVTGVRSSPDGLAVCTGSWDSTMKIWSPGYQ
modifications: 35S-labelled methionine
For B4, the binding [3] was “binds” and the binding [4] was “binds”.

B5: Ste4p (protein, Saccharomyces cerevisiae (yeast), UniProt P18851 1-423, looked up)
chain: T1 sequence (35S-labelled methionine in the in vitro-translated form, looked up)
modifications: 35S-labelled methionine in the in vitro-translated form
For B5, the binding [5] was “binds”.

B6: Ste4p^D62N mutant (two-hybrid system) (protein, Saccharomyces cerevisiae (yeast), UniProt P18851 1-423, looked up)
chain: T1 sequence (35S-labelled methionine in the in vitro-translated form, looked up) with D62N
For B6, the binding [6] was “binds”.

B7: Ste20p (enzyme)
chain: T3 sequence
notes: Full length Ste20p in yeast cells (endogenous, or from pDH166 / pSTE20-5); also called STE20^WT; wild-type Ste20p
B7 was tested, and the binding [1] was “binds”.
